The other results are listed elsewhere or left out.
Compound: O=C1NC(=O)C(c2cnc3ccccn23)=C1c1cn2c3c(cc(F)cc13)CN(C(=O)N1CCCCC1)CC2
Test: log2 fold change, soluble protein after heating vs DMSO (PISA); higher = thermal stabilisation; K562 lysate, 10 uM; active = over 0.2 and 3.5 SD of the protein, either way, in both replicates (recomputed)
Outline: (§1)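 A 30 min treatment with 10 μM compound was applied to crude K562 extract at 1 mg/mL protein in PBS pH 7.4 with 1 mM MgCl2. Heating for 3 min spanned 48°C-58°C, after which aliquots were pooled, adjusted to 0.5% NP-40 at 4°C and spun at 21,000xg for 90 min. TMTpro 16plex LC-MS/MS of the supernatant, with channel sums equalised, gave values recorded as log-two fold change in thermal stability against solvent controls, from duplicates.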

Amino acid sequences for entries named in this document (tags omitted). A change or cut given only in a name is not applied to a line headed by its entry.
UniProt Q9BQT9: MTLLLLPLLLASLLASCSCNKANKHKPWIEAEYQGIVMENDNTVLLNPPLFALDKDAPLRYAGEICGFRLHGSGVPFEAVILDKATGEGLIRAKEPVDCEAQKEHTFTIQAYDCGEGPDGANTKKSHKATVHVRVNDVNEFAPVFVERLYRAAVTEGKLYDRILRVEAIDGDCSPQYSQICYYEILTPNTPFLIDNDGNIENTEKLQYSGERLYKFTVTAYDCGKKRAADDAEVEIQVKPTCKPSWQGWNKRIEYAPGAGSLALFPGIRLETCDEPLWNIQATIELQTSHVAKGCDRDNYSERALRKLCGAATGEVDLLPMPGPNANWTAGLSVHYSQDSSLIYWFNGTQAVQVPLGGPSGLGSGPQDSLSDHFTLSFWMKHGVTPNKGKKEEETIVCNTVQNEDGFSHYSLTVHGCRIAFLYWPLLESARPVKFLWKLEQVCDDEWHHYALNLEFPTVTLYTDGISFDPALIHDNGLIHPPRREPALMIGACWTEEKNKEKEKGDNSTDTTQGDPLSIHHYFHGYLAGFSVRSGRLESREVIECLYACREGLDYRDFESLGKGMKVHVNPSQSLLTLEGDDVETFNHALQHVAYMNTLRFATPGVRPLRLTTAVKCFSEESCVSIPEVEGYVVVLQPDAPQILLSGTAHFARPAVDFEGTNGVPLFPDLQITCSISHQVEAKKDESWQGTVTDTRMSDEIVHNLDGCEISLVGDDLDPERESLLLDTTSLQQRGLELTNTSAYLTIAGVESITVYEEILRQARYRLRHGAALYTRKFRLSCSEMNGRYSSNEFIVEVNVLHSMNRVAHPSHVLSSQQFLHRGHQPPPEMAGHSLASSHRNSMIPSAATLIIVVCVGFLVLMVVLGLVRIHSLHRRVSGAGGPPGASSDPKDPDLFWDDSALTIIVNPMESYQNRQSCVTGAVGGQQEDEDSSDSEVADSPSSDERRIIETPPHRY
UniProt Q07065: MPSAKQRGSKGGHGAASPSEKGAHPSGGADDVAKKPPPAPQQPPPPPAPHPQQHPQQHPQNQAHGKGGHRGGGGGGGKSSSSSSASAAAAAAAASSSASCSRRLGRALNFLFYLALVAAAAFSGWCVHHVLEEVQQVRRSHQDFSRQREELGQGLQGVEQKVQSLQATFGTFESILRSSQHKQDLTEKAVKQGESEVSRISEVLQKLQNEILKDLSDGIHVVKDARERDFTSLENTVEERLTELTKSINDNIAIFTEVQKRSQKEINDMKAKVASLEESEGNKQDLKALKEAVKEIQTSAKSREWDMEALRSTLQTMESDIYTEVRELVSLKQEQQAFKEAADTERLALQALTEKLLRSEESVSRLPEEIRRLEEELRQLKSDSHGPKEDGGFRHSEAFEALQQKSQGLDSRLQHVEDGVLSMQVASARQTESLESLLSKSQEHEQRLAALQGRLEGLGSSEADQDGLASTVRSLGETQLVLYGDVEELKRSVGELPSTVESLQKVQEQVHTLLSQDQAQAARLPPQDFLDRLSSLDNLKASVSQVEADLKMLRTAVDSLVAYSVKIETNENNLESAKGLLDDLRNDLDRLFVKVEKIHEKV
UniProt P56277: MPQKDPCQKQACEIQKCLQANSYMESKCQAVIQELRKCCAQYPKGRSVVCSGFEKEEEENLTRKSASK
UniProt Q8NCH0: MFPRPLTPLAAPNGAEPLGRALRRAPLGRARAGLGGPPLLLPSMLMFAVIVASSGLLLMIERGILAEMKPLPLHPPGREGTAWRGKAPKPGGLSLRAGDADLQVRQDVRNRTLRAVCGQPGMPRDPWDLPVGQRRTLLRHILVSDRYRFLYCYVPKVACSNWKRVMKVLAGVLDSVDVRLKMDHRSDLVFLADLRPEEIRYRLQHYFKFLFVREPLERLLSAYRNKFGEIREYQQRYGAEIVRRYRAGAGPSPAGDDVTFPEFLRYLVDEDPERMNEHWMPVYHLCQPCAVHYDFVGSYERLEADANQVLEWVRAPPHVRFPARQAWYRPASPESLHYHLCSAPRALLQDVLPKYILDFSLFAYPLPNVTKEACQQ
UniProt P30622: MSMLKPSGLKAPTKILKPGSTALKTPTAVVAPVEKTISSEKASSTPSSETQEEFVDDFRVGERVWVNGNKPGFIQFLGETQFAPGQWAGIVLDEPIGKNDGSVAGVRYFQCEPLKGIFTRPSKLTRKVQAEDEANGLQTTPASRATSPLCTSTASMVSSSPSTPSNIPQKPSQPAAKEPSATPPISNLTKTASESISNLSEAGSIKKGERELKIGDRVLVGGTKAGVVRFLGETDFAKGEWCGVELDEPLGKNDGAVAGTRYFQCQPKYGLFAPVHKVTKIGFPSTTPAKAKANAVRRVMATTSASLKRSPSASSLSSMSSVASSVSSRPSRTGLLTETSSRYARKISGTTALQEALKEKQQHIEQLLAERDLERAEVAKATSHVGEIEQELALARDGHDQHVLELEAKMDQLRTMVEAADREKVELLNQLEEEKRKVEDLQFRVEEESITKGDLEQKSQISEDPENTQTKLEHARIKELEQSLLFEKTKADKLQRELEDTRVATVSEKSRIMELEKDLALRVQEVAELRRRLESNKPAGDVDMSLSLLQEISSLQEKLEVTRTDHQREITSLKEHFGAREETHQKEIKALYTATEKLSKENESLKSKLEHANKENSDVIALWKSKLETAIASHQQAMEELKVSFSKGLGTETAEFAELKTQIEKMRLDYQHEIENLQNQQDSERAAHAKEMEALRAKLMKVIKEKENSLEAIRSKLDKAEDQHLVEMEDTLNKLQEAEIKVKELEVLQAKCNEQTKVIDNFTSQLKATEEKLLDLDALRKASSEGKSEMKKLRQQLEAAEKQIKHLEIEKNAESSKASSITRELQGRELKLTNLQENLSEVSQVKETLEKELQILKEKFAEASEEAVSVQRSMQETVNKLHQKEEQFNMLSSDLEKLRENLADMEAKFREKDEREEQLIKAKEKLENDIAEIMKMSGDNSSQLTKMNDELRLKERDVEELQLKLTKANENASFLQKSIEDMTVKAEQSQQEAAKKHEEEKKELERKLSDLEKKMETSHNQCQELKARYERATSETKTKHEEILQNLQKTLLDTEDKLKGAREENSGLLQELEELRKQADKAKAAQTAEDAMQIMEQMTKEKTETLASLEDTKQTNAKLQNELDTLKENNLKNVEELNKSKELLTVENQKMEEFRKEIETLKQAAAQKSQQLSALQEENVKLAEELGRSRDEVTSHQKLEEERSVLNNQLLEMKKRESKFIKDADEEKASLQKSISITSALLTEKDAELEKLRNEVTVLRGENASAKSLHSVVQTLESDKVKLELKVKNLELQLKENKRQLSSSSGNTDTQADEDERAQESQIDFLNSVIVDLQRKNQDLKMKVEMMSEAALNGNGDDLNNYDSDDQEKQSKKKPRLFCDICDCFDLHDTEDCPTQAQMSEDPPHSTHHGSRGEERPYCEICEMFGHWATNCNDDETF
UniProt Q9Y240: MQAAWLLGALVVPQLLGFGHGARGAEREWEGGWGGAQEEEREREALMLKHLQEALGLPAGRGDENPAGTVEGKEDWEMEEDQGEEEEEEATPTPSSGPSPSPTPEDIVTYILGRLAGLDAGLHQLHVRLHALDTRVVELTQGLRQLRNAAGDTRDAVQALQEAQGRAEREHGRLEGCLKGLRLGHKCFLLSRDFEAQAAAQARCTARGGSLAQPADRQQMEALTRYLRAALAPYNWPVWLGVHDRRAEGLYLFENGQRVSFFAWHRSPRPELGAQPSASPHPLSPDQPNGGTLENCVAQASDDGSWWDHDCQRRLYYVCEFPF
UniProt Q9NX76: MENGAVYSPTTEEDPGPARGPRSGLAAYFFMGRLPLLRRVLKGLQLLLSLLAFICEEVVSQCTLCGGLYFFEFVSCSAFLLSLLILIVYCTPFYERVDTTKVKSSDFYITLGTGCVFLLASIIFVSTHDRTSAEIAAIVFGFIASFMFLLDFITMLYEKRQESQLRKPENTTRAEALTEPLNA
UniProt Q9UBR5: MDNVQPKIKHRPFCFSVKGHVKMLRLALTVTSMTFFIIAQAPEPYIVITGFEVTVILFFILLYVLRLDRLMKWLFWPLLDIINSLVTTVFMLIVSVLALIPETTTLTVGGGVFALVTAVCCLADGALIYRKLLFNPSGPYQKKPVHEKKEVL
UniProt O75122: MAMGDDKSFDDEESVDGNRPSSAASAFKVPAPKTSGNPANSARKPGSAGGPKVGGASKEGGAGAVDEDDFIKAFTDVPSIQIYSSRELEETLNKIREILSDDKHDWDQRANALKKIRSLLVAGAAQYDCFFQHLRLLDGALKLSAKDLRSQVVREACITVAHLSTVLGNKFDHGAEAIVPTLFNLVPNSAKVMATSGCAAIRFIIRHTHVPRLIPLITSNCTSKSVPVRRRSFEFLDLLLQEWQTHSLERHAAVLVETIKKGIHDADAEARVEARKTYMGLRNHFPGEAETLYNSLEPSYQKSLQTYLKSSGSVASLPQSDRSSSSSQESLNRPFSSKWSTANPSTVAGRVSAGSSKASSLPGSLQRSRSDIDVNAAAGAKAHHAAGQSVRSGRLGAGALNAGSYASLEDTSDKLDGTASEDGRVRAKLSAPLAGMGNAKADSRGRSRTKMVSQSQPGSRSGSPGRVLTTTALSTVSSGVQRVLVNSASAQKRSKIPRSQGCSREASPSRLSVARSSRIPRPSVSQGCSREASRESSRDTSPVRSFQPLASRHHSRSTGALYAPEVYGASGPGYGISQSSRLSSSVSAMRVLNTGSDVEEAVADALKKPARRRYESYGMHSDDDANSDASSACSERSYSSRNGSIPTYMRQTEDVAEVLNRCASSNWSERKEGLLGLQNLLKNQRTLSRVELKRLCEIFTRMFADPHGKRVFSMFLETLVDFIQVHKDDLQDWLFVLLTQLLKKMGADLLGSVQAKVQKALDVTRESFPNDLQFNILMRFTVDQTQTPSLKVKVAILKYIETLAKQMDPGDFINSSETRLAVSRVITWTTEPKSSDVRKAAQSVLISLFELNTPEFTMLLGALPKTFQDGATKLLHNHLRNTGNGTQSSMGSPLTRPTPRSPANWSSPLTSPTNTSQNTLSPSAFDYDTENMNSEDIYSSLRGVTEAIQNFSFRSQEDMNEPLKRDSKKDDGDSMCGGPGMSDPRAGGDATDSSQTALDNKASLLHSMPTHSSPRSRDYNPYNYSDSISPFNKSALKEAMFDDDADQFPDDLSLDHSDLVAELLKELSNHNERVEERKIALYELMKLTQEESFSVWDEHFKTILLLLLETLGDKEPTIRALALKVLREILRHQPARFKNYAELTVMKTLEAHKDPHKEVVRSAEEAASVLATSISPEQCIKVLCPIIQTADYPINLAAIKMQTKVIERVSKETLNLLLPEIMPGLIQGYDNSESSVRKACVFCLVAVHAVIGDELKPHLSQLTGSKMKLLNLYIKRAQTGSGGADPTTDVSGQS
UniProt Q86X95: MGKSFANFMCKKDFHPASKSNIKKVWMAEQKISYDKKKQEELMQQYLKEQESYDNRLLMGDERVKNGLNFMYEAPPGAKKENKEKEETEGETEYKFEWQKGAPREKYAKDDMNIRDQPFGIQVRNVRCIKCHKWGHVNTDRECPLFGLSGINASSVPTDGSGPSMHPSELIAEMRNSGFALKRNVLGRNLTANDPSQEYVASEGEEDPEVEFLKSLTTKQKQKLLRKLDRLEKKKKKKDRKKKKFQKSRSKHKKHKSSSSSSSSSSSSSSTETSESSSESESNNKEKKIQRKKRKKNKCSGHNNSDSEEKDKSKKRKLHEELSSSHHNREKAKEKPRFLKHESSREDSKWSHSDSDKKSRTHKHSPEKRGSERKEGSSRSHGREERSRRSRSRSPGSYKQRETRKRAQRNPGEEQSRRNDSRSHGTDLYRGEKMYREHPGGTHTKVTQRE
UniProt Q9BSY4: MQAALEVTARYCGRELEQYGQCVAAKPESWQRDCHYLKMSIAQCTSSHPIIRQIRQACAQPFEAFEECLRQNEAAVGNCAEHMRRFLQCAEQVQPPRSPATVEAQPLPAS
UniProt P49759: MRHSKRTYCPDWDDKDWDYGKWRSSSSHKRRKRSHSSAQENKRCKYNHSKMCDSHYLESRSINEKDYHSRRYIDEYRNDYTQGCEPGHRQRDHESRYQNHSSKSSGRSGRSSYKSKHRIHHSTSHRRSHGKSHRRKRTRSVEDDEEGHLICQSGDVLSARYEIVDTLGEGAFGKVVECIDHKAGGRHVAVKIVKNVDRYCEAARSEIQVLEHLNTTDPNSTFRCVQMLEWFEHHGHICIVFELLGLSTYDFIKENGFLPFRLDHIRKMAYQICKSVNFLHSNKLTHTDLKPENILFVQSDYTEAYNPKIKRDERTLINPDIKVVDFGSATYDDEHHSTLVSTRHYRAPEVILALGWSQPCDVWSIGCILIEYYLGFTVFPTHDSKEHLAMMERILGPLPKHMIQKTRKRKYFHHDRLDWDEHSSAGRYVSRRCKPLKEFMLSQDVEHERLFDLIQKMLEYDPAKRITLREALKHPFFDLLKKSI
UniProt P33552, whole entry, looked up: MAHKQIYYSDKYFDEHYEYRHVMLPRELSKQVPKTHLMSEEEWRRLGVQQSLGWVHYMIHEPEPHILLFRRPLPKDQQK

log2 fold change, inactive:
CLSTN3 isoform 2 (UniProt Q9BQT9) -0.082
CHTF8 (UniProt P0CG13) -0.093
CHMP4A (UniProt H0YIN6) 0.287
CKAP4 (UniProt Q07065) -0.045
CHTF18 (UniProt Q8WVB6) 0.069
CMC4 (UniProt P56277) 0.042
CLDN12 (UniProt P56749) 0.087
CHPF (UniProt Q8IZ52) -0.189
CLIP2 (UniProt Q9UDT6) -0.032
CHST14 (UniProt Q8NCH0) -0.006
CLIP1 isoform 2 (UniProt P30622) 0.002
CLEC11A (UniProt Q9Y240) -0.101
CHST2 (UniProt Q9Y4C5) -0.003
CMTM6 (UniProt Q9NX76) 0.044
CKLF (UniProt Q9UBR5) 0.044
CHURC1-FNTB (UniProt B4DL54) 0.103
CLASP2 (UniProt O75122) 0.194
CLSTN1 (UniProt O94985) -0.138
CLN8 (UniProt Q9UBY8) -0.013
CLEC16A isoform 2 (UniProt Q2KHT3) 0.036
CLCN2 (UniProt P51788) -0.061
CIR1 (UniProt Q86X95) -0.047
CHCHD5 (UniProt Q9BSY4) 0.017
CLK2 (UniProt P49760) 0.017

Compound: c1cn2cc(-c3ccc4cn[nH]c4c3)nc(Nc3ccc(N4CCOCC4)cc3)c2n1 [entospletinib]
Test: as above
Outline: as §1

log2 fold change, inactive:
CHTF8 (UniProt P0CG13) -0.047
CLK1 isoform 3 (UniProt P49759) -0.21
CKAP4 (UniProt Q07065) 0.085
CHTF18 (UniProt Q8WVB6) 0.072
CLDN12 (UniProt P56749) 0.05
CHPF (UniProt Q8IZ52) 0.029
CHD4, A0A2R8Y521 -0.313
CLDN7 (UniProt O95471) -0.108
CLIP2 (UniProt Q9UDT6) 0.002
CLIP1 isoform 2 (UniProt P30622) -0.151
CLEC11A (UniProt Q9Y240) -0.101
CMTM6 (UniProt Q9NX76) -0.122
CHURC1-FNTB (UniProt B4DL54) -0.048
CLASP2 (UniProt O75122) -0.073
CLSTN1 (UniProt O94985) -0.142
CLN8 (UniProt Q9UBY8) -0.055
CLCN2 (UniProt P51788) 0.178
CIR1 (UniProt Q86X95) 0.038
CKS2 (UniProt P33552) -0.136

Reference: the supplement of paper PMC10849652
